# Where “and” joins values, the source holds several entries; their conditions need not be identical. Equal values may be shown once. In all, about 300,000 compounds went through this assay and about 3,700 (1.2%) were called active. The inconclusive results got no clear call from the source; some entries with a clear call stand among them for comparison. Calls follow the shape of the full dose curve; tested in HEK293 cells. Potencies of inconclusive entries are doubtful fits and often do not repeat.
# Assay: qHTS for Inhibitors of binding or entry into cells for Lassa Virus; also: nearly all actives have a fitted effect of over 50% in size
# Conditions: Lassa virus pseudotype entry inhibition, cell reporter; series mostly up to 37.9 µM
# Potency is read from the fitted curve at half-maximal effect.
row,Compound,Potency
1,CC(OC(=O)c1ccccc1C(=O)N(C)c1ccccc1)C(=O)Nc1ccc(C(N)=O)cc1 (stereo not drawn),"inconclusive: 2.51 µM [inhibitor, partial curve, poor fit]"
2,CCOCC(=O)Nc1ccc([N+](=O)[O-])cc1C,inactive
3,Cc1ccc(C(CNC(=O)Nc2ccc(Cl)cc2)N2CCN(C)CC2)cc1 (stereo not drawn),"inconclusive: 35.5 µM [inhibitor, single point]"
4,Cc1ccc(-c2csc3ncnc(Nc4ccc(N5CCOCC5)cc4)c23)cc1,active: 12.6 µM
5,COc1cccc(S(=O)(=O)NCc2ccc(C(=O)N3CCN(Cc4ccccc4)CC3)cc2)c1,"inconclusive: 11.2 µM [inhibitor, partial curve, poor fit]"
6,Cc1ccc(OCC(=O)c2cc(C)n(C)c2C)c([N+](=O)[O-])n1,"inconclusive: 4.61 µM [activator, partial curve]"
7,CCOc1ccc(C(=O)Nc2cc(C)on2)cc1,"inconclusive: 29.1 µM [inhibitor, single point]"
8,CN(C)CC1CCCCC1OC(=O)c1ccc(Br)cc1 (stereo not drawn),inactive
9,Cc1ccc(-n2nc(-c3ccco3)cc2C(=O)NCc2cccnc2)cc1,"inconclusive: 1.41 µM [inhibitor, partial curve, poor fit]"
10,O=S(=O)(c1cccc2c(Cl)cccc12)N1CCCNCC1,inactive
11,CC(=O)Nc1ccc(S(=O)(=O)NC2=C(N3CCN(Cc4ccccc4)CC3)C(=O)c3ccccc3C2=O)cc1,"inconclusive: 7.94 µM [inhibitor, partial curve] and inconclusive: 35.5 µM [inhibitor, single point]"
12,CCc1ccc(OCC(=O)Nc2cc(-c3nc4cc(C)ccc4o3)ccc2C)cc1,"inconclusive: 35.5 µM [activator, single point]"
13,O=C(CCl)Nc1cc(S(=O)(=O)N2CCCCCC2)ccc1Cl,"inconclusive: 17.8 µM [inhibitor, partial curve, poor fit]"
14,COc1ccc(-c2nc(NC(=O)c3n[nH]c(=O)c4ccccc34)sc2C)cc1,active: 1.03 µM
15,COc1ccc(Cc2nnc(NC(=O)Cn3cnc4c3c(=O)n(C)c(=O)n4C)s2)cc1,"inconclusive: 3.16 µM [activator, full curve, poor fit]"
16,Cc1[nH]c2ccc(-c3nnc(SCC(=O)N4CCCc5ccccc54)o3)cc2c1C,"inconclusive: 5.8 µM [inhibitor, partial curve, poor fit]"
17,CCOc1ccc(C(C(=O)NCC2CCCO2)N(C(=O)c2snc(C(N)=O)c2N)c2ccc(F)cc2)cc1 (stereo not drawn),"inconclusive: 10 µM [inhibitor, partial curve]"
18,Cc1nnc(N2C(=O)C(=O)/C(=C(\O)c3ccc4c(c3)CC(C)O4)C2c2ccccc2)s1 (stereo not drawn),"inconclusive: 0.562 µM [inhibitor, full curve, poor fit]"
19,CCCCCCCCNC(=O)CC(NS(=O)(=O)c1ccc(NC(C)=O)cc1)C(C)C (stereo not drawn),active: 2.06 µM
20,C=CCN(C(=O)CSc1nnnn1C)c1nc(-c2ccccc2)cs1,"inconclusive: 0.794 µM [activator, single point]"
21,Cc1cccc(-n2c(C)cc(/C=C3\NC(=O)NC3=O)c2C)c1,"inconclusive: 17.8 µM [inhibitor, partial curve, poor fit]"
22,Cc1ccc(C)c(C(=O)C(C)OC(=O)CN2C(=O)NC3(CC(C)CC(C)(C)C3)C2=O)c1 (stereo not drawn),inactive
23,O=C(Nc1ccc(S(=O)(=O)NCC2CCCO2)cc1)c1ccccc1 (stereo not drawn),"inconclusive: 35.5 µM [inhibitor, single point]"

# Given tab-delimited: two of the compounds above
row	Compound	Potency
9	Cc1ccc(-n2nc(-c3ccco3)cc2C(=O)NCc2cccnc2)cc1	inconclusive: 1.41 µM [inhibitor, partial curve, poor fit]
20	C=CCN(C(=O)CSc1nnnn1C)c1nc(-c2ccccc2)cs1	inconclusive: 0.794 µM [activator, single point]

# The list goes on:

row,Compound,Potency
1,COc1cc(CN=Cc2c(O)n(Cc3ccccc3)c(=S)[nH]c2=O)cc(OC)c1,"inconclusive: 35.5 µM [inhibitor, single point]"
2,COc1ccc(Cn2c(SCc3ccc(C)cc3)nc3cc(OC)c(OC)cc3c2=N)cc1Cl,active: 10 µM
3,CC(C)(C)OC(=O)N1CCC(c2c(C(=O)N3CCN(Cc4ccccc4)CC3)cnn2-c2ccc(Cl)cc2)CC1,"inconclusive: 0.891 µM [inhibitor, full curve, poor fit]"
4,CCN(CC)S(=O)(=O)c1ccc(NC(=O)C(C)N(c2ccc(OC)cc2)S(C)(=O)=O)cc1 (stereo not drawn),"inconclusive: 5.8 µM [inhibitor, partial curve, poor fit]"
5,CSc1ccc(/C=N/NC(=O)c2ccc(C)c(C)c2)cc1,"inconclusive: 32.6 µM [inhibitor, single point]"
6,S=C(c1ccc(Br)cc1)N1CCCC1,"inconclusive: 3.98 µM [inhibitor, single point]"
7,CC(=O)N(CCCN(C)C)c1nc2ccc(C)cc2s1,"inconclusive: 28.2 µM [inhibitor, partial curve, poor fit]"
8,Cc1ccc(C)c(NC(=O)c2cnn(-c3ccccc3)c2C)c1,"inconclusive: 35.5 µM [inhibitor, single point]"
9,CCC1(c2ccccc2)NC(=O)N(CC(=O)Nc2ccc(OC)nc2)C1=O (stereo not drawn),"inconclusive: 6.31 µM [inhibitor, full curve, poor fit]"
10,Cc1cc(C)cc(N/C(N)=N/c2nc(C)cc(C)n2)c1,active: 20.6 µM
11,COc1cccc2c1C1COC3C4CC(C(=O)O)C(C(C2)N13)N4C (stereo not drawn),"inconclusive: 6.31 µM [inhibitor, single point]"
12,COc1ccc(Cl)cc1S(=O)(=O)N1CCC(C(=O)NC2CC2)CC1,inactive
13,C=C(C)COc1ccc(-c2n[nH]c(C)c2-c2ccccc2)c(O)c1,active: 1.78 µM
14,O=C(CCCSc1nc2ccccc2[nH]1)N1CCN(c2ccc([N+](=O)[O-])cc2)CC1,inactive
15,O=C(COC(=O)Cc1ccsc1)Nc1ccc(Br)cc1F,inactive
16,c1ccc(Sc2cnc3ccccc3n2)cc1,"inconclusive: 7.08 µM [activator, partial curve, poor fit]"
17,Cc1nc2ccccc2nc(C)c1=NOCc1cccc(F)c1,active: 2.82 µM
18,Cc1nn(-c2ccccc2)c(C)c1NC(=O)COC(=O)c1ccc(NC(=O)CC#N)cc1,"inconclusive: 3.98 µM [activator, single point]"
19,COc1ccc(CCNC(=O)/C(=C/c2cccnc2)NC(=O)c2ccccc2)cc1,"inconclusive: 35.5 µM [inhibitor, partial curve, poor fit]"
20,COc1ccc(CSc2nnc(C)n2N)cc1[N+](=O)[O-],inactive
21,OC(c1cc(-c2cccc(Cl)c2)nc2ccccc12)C1CCCCN1 (stereo not drawn),"inconclusive: 4.47 µM [inhibitor, full curve, poor fit]"
22,COc1ccc(C(=O)N/N=C/C(C)c2ccccc2)cc1OC (stereo not drawn),inactive
23,CCS(=O)(=O)c1ncc(Cl)c(C(=O)NCc2ccccc2)n1,"inconclusive: 35.5 µM [inhibitor, single point]"

# A different layout for 5 compounds above.
row	Compound	Potency
10	O=S(=O)(c1cccc2c(Cl)cccc12)N1CCCNCC1	inactive
12	CCc1ccc(OCC(=O)Nc2cc(-c3nc4cc(C)ccc4o3)ccc2C)cc1	inconclusive: 35.5 µM [activator, single point]
14	COc1ccc(-c2nc(NC(=O)c3n[nH]c(=O)c4ccccc34)sc2C)cc1	active: 1.03 µM
19	CCCCCCCCNC(=O)CC(NS(=O)(=O)c1ccc(NC(C)=O)cc1)C(C)C (stereo not drawn)	active: 2.06 µM
14	O=C(CCCSc1nc2ccccc2[nH]1)N1CCN(c2ccc([N+](=O)[O-])cc2)CC1	inactive

# (cont.)

row,Compound,Potency
1,COc1ccc(Br)cc1/C=C/C(=O)c1ccc(NC(C)=O)cc1,active: 3.98 µM
2,CCc1cccc(OCCN2CCCC2)c1,"inconclusive: 0.282 µM [activator, single point]"
3,Cc1cccc(/C=N/NC(=O)NC2CCCCC2)c1,"inconclusive: 0.517 µM [inhibitor, partial curve, poor fit]"
4,COc1ccc(CNC(=O)CNS(=O)(=O)c2cccc(C#N)c2)cc1OC,inactive
5,O=C(Nc1nc(-c2ccccn2)cs1)C12CC3CC(CC(O)(C3)C1)C2,"inconclusive: 35.5 µM [inhibitor, single point]"
6,CCN(CC)CCOc1c(Br)ccc2c1sc1nc3n(c(=O)c12)CCC3,inactive
7,Cc1ccc(NC(=O)CN(C)C2CCCCC2)cc1Cl,"inconclusive: 35.5 µM [inhibitor, partial curve, poor fit]"
8,NS(=O)(=O)c1ccccc1NC(=O)c1c(O)c2ccccc2[nH]c1=O,"inconclusive: 6.31 µM [activator, single point]"
9,Cc1ccc(NC(=O)CCC(=O)N/N=C/c2coc3ccc(F)cc3c2=O)cc1,inactive
10,NC(=S)N/N=C/c1cccc(O)c1O,"inconclusive: 8.91 µM [inhibitor, partial curve, poor fit]"
11,CCOc1ccc(CCNC(=O)c2ccccc2OCc2c(C)noc2C)cc1OCC,inactive
12,O=C(NCCC1=CCCCC1)c1cnc2n(c1=O)CCS2,inactive
13,Cn1nnnc1SCc1csc(C2C(C#N)=C(N)OC3=C2C(=O)CCC3)c1 (stereo not drawn),inactive
14,CCOc1ccccc1N1CCN(S(=O)(=O)c2ccc(Cl)s2)CC1,inactive
15,O=C(N/N=C/c1cn(-c2cccs2)nc1-c1ccccc1)c1ccc(O)cc1,"inconclusive: 20.6 µM [inhibitor, single point]"
16,COc1ccccc1NC(=O)c1cc2n(n1)C(C(F)(F)F)CC(c1ccc3c(c1)OCO3)N2 (stereo not drawn),"inconclusive: 12.6 µM [inhibitor, single point]"
17,Cc1nn(C(C)c2nc(-c3ccccc3)no2)c(C)c1[N+](=O)[O-] (stereo not drawn),inactive
18,Cc1nn(-c2ccc(F)cc2)c(Cl)c1/C=C1\C(=O)Nc2ccccc21,"inconclusive: 1.64 µM [inhibitor, full curve]"
19,CC(C)(C)c1csc(NC(=O)CSC2=NCCS2)n1,"inconclusive: 0.708 µM [inhibitor, full curve, poor fit]"
20,Cc1ccc2c(N)c(C(=O)c3ccccc3)sc2n1,"inconclusive: 35.5 µM [inhibitor, single point]"
21,O=C(NCCN1CCOCC1)c1cc(-c2cccs2)on1,inactive
22,Cc1cc(/C=N/NC(=O)c2c(Br)cnn2C)c(C)n1-c1cccc(Br)c1,"inconclusive: 14.6 µM [inhibitor, partial curve, poor fit]"

# Source: PubChem BioAssay AID540256 (National Center for Advancing Translational Sciences (NCATS), 2011)
